These are yes or no findings as the source states them, for the method shown. In cells and extracts the contact can be indirect. Here binding means that the protein was enriched with, or labelled near, the bait; the list need not be complete. Sequences can lack the tags named with a protein.
T1: SPOT-ALFA-tagged Lcb2 (serine palmitoyltransferase catalytic subunit Lcb2) (yeast) (UniProt P40970)
T1 sequence: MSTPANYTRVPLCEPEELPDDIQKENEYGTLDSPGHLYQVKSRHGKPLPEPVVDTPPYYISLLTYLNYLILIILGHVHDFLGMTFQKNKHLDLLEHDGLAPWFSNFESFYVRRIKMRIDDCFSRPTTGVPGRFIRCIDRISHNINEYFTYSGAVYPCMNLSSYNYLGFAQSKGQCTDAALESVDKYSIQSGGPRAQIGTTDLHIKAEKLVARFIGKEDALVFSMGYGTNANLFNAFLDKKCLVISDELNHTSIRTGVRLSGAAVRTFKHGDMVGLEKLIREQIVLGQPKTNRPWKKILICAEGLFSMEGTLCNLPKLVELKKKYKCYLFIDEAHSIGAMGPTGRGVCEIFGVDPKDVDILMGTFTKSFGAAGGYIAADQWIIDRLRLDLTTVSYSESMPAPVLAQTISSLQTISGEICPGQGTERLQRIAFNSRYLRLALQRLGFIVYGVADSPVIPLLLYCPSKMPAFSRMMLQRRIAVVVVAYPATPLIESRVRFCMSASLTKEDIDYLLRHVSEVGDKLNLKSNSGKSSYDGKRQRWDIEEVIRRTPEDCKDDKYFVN

The chains behind the UniProt entries cited, without tags or fusion partners.
UniProt P53224: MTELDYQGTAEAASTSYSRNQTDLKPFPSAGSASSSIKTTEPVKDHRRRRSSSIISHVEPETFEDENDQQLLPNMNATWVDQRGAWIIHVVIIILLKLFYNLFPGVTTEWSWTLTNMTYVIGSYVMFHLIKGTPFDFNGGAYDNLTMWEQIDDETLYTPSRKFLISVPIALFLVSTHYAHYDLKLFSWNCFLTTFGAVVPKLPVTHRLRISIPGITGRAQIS


biological target: T1, SPOT-ALFA-tagged Lcb2 (serine palmitoyltransferase catalytic subunit Lcb2) (yeast); experiment: affinity purification with mass spectrometry

binding | Molecule
binds | Orm1 (from UniProt P53224 1-222)
binds | Sac1 (phosphatidylinositol-4-phosphate phosphatase) (protein, UniProt P32368 1-623) MTGPIVYVQNADGIFFKLAEGKGTNDAVIHLANQDQGVRVLGAEEFPVQGEVVKIASLMGFIKLKLNRYAIIANTVEETGRFNGHVFYRVLQHSIVSTKFNSRIDSEEAEYIKLLELHLKNSTFYFSYTYDLTNSLQRNEKVGPAASWKTADERFFWNHYLTEDLRNFAHQDPRIDSFIQPVIYGYAKTVDAVLNATPIVLGLITRRSIFRAGTRYFRRGVDKDGNVGNFNETEQILLAENPESEKIHVFSFLQTRGSVPIYWAEINNLKYKPNLVLGENSLDATKKHFDQQKELYGDNYLVNLVNQKGHELPVKEGYESVVHALNDPKIHYVYFDFHHECRKMQWHRVKLLIDHLEKLGLSNEDFFHKVIDSNGNTVEIVNEQHSVVRTNCMDCLDRTNVVQSVLAQWVLQKEFESADVVATGSTWEDNAPLLTSYQNLWADNADAVSVAYSGTGALKTDFTRTGKRTRLGAFNDFLNSASRYYQNNWTDGPRQDSYDLFLGGFRPHTASIKSPFPDRRPVYIQLIPMIICAALTVLGATIFFPKDRFTSSKNLLYFAGASIVLALSTKFMFKNGIQFVNWPKLVDVGFLVVHQTHDKEQQFKGLKYAQSPKFSKPDPLKRD
binds | Orm2 (protein, UniProt Q06144 1-216) MIDRTKNESPAFEESPLTPNVSNLKPFPSQSNKISTPVTDHRRRRSSSVISHVEQETFEDENDQQMLPNMNATWVDQRGAWLIHIVVIVLLRLFYSLFGSTPKWTWTLTNMTYIIGFYIMFHLVKGTPFDFNGGAYDNLTMWEQINDETLYTPTRKFLLIVPIVLFLISNQYYRNDMTLFLSNLAVTVLIGVVPKLGITHRLRISIPGITGRAQIS
binds | Tsc3 (small regulatory subunit of serine palmitoyltransferase) (protein, UniProt Q3E790 1-80) MTQHKSSMVYIPTTKEAKRRNGKSEGILNTIEEVVEKLYWTYYIHLPFYLMASFDSFFLHVFFLTIFSLSFFGILKYCFL
binds | Lcb1 (serine palmitoyltransferase catalytic subunit) (protein, UniProt P25045 1-558) MAHIPEVLPKSIPIPAFIVTTSSYLWYYFNLVLTQIPGGQFIVSYIKKSHHDDPYRTTVEIGLILYGIIYYLSKPQQKKSLQAQKPNLSPQEIDALIEDWEPEPLVDPSATDEQSWRVAKTPVTMEMPIQNHITITRNNLQEKYTNVFNLASNNFLQLSATEPVKEVVKTTIKNYGVGACGPAGFYGNQDVHYTLEYDLAQFFGTQGSVLYGQDFCAAPSVLPAFTKRGDVIVADDQVSLPVQNALQLSRSTVYYFNHNDMNSLECLLNELTEQEKLEKLPAIPRKFIVTEGIFHNSGDLAPLPELTKLKNKYKFRLFVDETFSIGVLGATGRGLSEHFNMDRATAIDITVGSMATALGSTGGFVLGDSVMCLHQRIGSNAYCFSACLPAYTVTSVSKVLKLMDSNNDAVQTLQKLSKSLHDSFASDDSLRSYVIVTSSPVSAVLHLQLTPAYRSRKFGYTCEQLFETMSALQKKSQTNKFIEPYEEEEKFLQSIVDHALINYNVLITRNTIVLKQETLPIVPSLKICCNAAMSPEELKNACESVKQSILACCQESNK

From paper doi:10.1101/2023.03.29.534722
